Laboratory results reported in the supplement of paper PMC10849652.
Some of the results follow.

Sequences of proteins named here, by UniProt entry; tags and fusion partners are left off. A change or cut given only in a name is not applied to a line headed by its entry.
UniProt Q13216, whole entry, looked up: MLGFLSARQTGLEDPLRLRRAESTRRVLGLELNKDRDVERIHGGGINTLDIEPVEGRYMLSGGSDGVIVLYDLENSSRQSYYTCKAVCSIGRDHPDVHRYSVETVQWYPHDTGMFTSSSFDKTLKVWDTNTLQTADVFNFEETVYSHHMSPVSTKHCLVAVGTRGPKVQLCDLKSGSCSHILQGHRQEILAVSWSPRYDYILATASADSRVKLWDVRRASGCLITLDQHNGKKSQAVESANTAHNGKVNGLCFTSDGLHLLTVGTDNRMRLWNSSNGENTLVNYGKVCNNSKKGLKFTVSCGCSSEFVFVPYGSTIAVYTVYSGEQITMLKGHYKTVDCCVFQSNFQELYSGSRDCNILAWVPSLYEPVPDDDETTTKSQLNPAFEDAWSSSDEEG
UniProt O43491, whole entry, looked up: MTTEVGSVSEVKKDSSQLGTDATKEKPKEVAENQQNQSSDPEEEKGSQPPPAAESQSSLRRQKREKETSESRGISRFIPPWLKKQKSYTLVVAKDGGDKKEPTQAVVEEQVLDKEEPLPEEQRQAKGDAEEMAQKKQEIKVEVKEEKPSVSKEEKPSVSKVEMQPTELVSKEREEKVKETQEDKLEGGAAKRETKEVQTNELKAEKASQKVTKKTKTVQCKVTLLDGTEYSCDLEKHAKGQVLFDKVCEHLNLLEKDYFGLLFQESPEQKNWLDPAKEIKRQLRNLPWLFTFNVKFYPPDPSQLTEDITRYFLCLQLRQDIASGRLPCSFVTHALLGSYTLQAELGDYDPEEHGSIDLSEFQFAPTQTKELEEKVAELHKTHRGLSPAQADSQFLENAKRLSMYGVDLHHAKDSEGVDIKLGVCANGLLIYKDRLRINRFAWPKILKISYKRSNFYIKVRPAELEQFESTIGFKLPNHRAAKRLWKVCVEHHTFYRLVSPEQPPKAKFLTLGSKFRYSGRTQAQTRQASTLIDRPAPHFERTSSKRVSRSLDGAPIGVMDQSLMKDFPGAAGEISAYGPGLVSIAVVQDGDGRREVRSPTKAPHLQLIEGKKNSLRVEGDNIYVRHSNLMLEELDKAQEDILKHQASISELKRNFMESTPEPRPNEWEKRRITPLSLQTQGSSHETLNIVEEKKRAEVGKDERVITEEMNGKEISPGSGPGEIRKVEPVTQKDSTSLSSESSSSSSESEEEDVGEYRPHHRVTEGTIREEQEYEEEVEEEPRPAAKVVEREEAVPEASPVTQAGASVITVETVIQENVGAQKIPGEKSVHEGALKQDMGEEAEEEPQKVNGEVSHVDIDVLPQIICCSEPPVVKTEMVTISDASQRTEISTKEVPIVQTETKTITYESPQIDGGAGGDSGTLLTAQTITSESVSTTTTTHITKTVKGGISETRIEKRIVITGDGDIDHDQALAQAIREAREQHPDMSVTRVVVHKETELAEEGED
UniProt Q96AY2: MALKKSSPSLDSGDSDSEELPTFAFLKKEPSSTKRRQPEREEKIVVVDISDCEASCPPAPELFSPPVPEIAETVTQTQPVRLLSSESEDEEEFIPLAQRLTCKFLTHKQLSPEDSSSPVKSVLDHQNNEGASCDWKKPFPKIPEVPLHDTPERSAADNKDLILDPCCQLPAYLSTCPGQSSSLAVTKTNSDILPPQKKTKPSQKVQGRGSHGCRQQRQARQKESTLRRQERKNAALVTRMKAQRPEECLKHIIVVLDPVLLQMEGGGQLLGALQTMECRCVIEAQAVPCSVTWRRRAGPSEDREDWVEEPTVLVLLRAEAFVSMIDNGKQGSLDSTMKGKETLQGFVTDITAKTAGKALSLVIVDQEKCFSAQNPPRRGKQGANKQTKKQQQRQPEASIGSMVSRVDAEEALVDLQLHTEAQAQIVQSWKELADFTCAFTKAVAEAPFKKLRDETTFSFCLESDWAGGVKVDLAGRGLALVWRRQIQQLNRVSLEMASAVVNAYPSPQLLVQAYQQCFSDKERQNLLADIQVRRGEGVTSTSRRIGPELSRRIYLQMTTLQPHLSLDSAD
UniProt O60516: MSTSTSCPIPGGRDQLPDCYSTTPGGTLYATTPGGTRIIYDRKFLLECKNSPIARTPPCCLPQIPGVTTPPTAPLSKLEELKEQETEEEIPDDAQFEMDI
UniProt P50548: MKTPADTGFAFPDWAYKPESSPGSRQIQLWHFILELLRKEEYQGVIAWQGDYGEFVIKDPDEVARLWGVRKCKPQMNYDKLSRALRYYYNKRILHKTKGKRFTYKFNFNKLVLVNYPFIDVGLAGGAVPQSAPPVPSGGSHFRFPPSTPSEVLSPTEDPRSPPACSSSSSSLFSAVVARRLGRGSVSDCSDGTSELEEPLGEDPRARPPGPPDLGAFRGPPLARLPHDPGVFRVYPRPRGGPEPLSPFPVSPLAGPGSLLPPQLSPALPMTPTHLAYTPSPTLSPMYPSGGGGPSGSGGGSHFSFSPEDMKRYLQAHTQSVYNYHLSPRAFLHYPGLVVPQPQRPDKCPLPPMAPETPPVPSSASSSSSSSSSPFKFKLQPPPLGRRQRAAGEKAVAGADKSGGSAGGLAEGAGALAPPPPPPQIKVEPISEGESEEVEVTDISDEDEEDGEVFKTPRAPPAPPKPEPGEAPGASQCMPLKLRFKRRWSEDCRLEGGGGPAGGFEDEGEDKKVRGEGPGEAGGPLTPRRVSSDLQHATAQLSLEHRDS
UniProt Q9H5J4: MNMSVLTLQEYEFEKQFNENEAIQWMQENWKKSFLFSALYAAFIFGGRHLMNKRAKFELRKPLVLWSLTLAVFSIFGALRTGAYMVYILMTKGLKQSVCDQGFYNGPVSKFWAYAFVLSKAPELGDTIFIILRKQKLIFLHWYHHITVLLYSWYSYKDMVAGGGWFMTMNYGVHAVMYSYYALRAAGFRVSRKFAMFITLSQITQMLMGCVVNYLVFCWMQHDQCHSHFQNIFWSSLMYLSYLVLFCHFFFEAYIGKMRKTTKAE
UniProt Q8TE02: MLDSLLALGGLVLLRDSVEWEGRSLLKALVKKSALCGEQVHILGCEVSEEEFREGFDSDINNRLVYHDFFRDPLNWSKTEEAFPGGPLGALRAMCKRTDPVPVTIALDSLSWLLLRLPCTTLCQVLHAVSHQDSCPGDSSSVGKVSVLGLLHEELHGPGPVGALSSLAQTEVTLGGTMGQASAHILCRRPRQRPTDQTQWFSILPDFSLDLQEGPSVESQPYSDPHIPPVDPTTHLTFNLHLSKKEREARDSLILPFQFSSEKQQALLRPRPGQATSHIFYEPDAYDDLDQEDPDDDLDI
UniProt P0DP91, whole entry, looked up: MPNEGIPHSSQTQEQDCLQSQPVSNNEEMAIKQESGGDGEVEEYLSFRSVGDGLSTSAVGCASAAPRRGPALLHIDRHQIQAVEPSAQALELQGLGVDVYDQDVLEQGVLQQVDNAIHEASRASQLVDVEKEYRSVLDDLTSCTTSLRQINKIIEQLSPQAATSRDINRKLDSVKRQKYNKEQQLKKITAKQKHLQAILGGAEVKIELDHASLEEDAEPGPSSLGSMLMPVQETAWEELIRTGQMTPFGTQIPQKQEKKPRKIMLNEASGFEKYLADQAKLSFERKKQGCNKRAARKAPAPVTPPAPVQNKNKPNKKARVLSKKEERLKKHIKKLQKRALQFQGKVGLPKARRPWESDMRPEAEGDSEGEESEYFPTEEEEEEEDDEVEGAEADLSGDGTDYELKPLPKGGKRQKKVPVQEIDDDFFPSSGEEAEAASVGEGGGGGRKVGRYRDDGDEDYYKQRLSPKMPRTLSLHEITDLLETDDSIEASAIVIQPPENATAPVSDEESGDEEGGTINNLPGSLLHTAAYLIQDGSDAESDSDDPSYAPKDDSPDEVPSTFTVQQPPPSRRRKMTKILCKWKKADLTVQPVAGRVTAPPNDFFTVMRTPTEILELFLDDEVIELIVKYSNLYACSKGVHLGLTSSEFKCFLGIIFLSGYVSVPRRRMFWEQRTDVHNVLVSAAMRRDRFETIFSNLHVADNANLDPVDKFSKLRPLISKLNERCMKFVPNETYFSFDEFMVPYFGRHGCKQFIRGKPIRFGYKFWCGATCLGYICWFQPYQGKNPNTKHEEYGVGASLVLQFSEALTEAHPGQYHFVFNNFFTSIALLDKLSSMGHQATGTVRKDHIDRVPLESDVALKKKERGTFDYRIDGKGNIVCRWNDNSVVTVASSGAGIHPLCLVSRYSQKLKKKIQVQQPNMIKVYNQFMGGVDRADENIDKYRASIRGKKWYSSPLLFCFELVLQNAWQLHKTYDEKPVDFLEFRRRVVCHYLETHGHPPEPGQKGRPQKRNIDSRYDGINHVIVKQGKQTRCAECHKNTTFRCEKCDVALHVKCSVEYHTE
UniProt O75822, whole entry, looked up: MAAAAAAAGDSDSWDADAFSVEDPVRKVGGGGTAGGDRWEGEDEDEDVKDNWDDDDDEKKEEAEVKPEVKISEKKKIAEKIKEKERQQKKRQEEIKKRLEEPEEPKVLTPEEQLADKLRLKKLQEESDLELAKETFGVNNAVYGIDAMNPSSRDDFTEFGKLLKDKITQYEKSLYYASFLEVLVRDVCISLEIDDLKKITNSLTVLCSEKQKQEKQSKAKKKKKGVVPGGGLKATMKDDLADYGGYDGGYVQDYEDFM
UniProt Q9H2F5, whole entry, looked up: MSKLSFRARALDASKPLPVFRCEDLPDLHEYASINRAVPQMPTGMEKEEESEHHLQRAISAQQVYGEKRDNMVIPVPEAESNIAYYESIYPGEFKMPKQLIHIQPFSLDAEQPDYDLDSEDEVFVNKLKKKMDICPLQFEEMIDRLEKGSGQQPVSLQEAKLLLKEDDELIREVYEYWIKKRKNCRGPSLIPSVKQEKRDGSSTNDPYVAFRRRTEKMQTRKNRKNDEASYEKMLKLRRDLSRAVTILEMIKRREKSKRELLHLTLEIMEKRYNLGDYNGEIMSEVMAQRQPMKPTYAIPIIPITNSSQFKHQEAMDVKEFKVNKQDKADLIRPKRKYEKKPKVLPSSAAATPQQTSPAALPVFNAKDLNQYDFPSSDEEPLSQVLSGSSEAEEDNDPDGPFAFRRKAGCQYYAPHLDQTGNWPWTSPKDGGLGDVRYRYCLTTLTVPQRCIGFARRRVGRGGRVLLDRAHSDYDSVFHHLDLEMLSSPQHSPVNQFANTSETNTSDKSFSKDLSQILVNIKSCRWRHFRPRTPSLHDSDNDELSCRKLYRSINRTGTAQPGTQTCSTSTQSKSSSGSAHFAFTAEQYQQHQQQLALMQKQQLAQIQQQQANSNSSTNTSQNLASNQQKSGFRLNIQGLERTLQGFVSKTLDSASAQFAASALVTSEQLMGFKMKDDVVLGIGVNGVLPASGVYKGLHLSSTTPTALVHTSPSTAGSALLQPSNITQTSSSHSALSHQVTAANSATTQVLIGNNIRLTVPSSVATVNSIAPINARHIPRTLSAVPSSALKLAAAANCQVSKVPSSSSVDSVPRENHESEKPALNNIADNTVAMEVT

Assays:
Test in all cases: log2 fold change, soluble protein after heating vs DMSO (PISA); higher = thermal stabilisation; K562 lysate, 10 uM; active = over 0.2 and 3.5 SD of the protein, either way, in both replicates (recomputed)
alvocidib = compound: CN1CC[C@H](c2c(O)cc(O)c3c(=O)cc(-c4ccccc4Cl)oc23)[C@H](O)C1 [alvocidib]
Outline: (§1)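 Thermal stability, expressed as log-two fold change relative to solvent controls, is given from duplicates. Crude K562 extract in PBS pH 7.4 with 1 mM MgCl2, at 1 mg/mL protein, was treated with 10 μM compound for 30 min and heated in aliquots for 3 min across 48°C-58°C. After pooling, adjustment to 0.5% NP-40 at 4°C and centrifugation at 21,000xg for 90 min, supernatant protein was measured by TMTpro 16plex LC-MS/MS with channel sums equalised.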

alisertib = compound: COc1cc(Nc2ncc3c(n2)-c2ccc(Cl)cc2C(c2c(F)cccc2OC)=NC3)ccc1C(=O)O [alisertib]
Outline: as §1

[1] = compound: COc1cc2nc(-c3cc(F)ccc3O)nc(N[C@@H]3CNC[C@H]3C(C)(C)O)c2cc1OC
Outline: as §1

gefitinib = compound: COc1cc2ncnc(Nc3ccc(F)c(Cl)c3)c2cc1OCCCN1CCOCC1 [gefitinib]
Outline: as §1

lapatinib = compound: CS(=O)(=O)CCNCc1ccc(-c2ccc3ncnc(Nc4ccc(OCc5cccc(F)c5)c(Cl)c4)c3c2)o1 [lapatinib]
Outline: as §1

[2] = compound: C[C@H](C1=CC=C(C=C1)C(=O)NC2=C3C=CNC3=NC=C2)N
Outline: as §1

gandotinib = compound: Cc1cc(Nc2cc(CN3CCOCC3)c3nc(C)c(Cc4ccc(Cl)cc4F)n3n2)n[nH]1 [gandotinib]
Outline: as §1

[3] = compound: Cc1cccc(CC(=O)N2CCc3c2ccc(-c2cn(C)c4ncnc(N)c24)c3F)n1
Outline: as §1

pictilisib = compound: CS(=O)(=O)N1CCN(Cc2cc3nc(-c4cccc5[nH]ncc45)nc(N4CCOCC4)c3s2)CC1 [pictilisib]
Outline: as §1

crizotinib = compound: C[C@@H](Oc1cc(-c2cnn(C3CCNCC3)c2)cnc1N)c1c(Cl)ccc(F)c1Cl [crizotinib]
Outline: as §1

doramapimod = compound: Cc1ccc(-n2nc(C(C)(C)C)cc2NC(=O)Nc2ccc(OCCN3CCOCC3)c3ccccc23)cc1 [doramapimod]
Outline: as §1

bafetinib = compound: Cc1ccc(NC(=O)c2ccc(CN3CC[C@H](N(C)C)C3)c(C(F)(F)F)c2)cc1Nc1nccc(-c2cncnc2)n1 [bafetinib]
Outline: as §1

Tubastatin A = compound: CN1CCc2c(c3ccccc3n2Cc2ccc(C(=O)NO)cc2)C1 [Tubastatin A]
Outline: as §1

defactinib = compound: CNC(=O)c1ccc(Nc2ncc(C(F)(F)F)c(NCc3nccnc3N(C)S(C)(=O)=O)n2)cc1 [defactinib]
Outline: as §1

encorafenib = compound: COC(=O)N[C@@H](C)CNc1nccc(-c2cn(C(C)C)nc2-c2cc(Cl)cc(NS(C)(=O)=O)c2F)n1 [encorafenib]
Outline: as §1

[4] = compound: COC(=O)[C@H](CCSC)NC(=O)C1=C(C=C(C=C1)NC[C@H](CS)N)C2=CC=CC=C2
Outline: as §1

tozasertib = compound: Cc1cc(Nc2cc(N3CCN(C)CC3)nc(Sc3ccc(NC(=O)C4CC4)cc3)n2)n[nH]1 [tozasertib]
Outline: as §1

[5] = compound: CNC(=O)C1=CC=CC=C1NC2=NC(=NC=C2Cl)NC3=C(C=C(C=C3)N4CCOCC4)OC
Outline: as §1

[6] = compound: CNc1nc(-c2ccc3c(N)n[nH]c3c2)cc(N2C[C@@H](C(=O)NC3CCCCC3)CC[C@H]2C)n1
Outline: as §1

duvelisib = compound: C[C@H](Nc1ncnc2nc[nH]c12)c1cc2cccc(Cl)c2c(=O)n1-c1ccccc1 [duvelisib]
Outline: as §1

Measured: log2 fold change

EIF3I (UniProt Q5TFK1)
inactive: alvocidib 0.053 | alisertib 0.159 | [1] 0.613 | gefitinib 0.233 | lapatinib -0.063 | [2] 0.137 | gandotinib 0.052 | [3] 0.112

ERCC8 (UniProt Q13216)
inactive: alvocidib -0.009 | alisertib 0.053 | [1] 0.031 | gefitinib -0.05 | lapatinib -0.055 | pictilisib 0.065 | crizotinib -0.021 | [2] -0.083 | gandotinib 0.042 | doramapimod 0.065 | bafetinib -0.06 | [3] 0.02

EIF2B5, A0A3B3ITK8
inactive: alisertib -0.014 | [1] -0.03 | gefitinib -0.08 | lapatinib -0.108

EPB41L2 isoform 4 (UniProt O43491)
inactive: alvocidib -0.009 | Tubastatin A 0.027 | alisertib 0.125 | [1] -0.065 | gefitinib -0.156 | lapatinib 0.009 | pictilisib 0.036 | [2] -0.122 | gandotinib 0.169 | bafetinib -0.073 | [3] 0.046

EME1 isoform 2 (UniProt Q96AY2)
inactive: alvocidib -0.04 | Tubastatin A -0.072 | defactinib -0.031 | encorafenib 0.04 | [4] 0.096 | pictilisib -0.066 | crizotinib -0.077 | [2] 0.038 | gandotinib -0.06 | tozasertib 0.042 | doramapimod 0.125 | bafetinib -0.102 | [3] -0.065

Taken from above (two entries):
EIF3I (UniProt Q5TFK1)
inactive: alvocidib 0.053 | alisertib 0.159 | [1] 0.613 | gefitinib 0.233 | lapatinib -0.063 | [2] 0.137 | gandotinib 0.052 | [3] 0.112

ERCC8 (UniProt Q13216)
inactive: alvocidib -0.009 | alisertib 0.053 | [1] 0.031 | gefitinib -0.05 | lapatinib -0.055 | pictilisib 0.065 | crizotinib -0.021 | [2] -0.083 | gandotinib 0.042 | doramapimod 0.065 | bafetinib -0.06 | [3] 0.02

Carrying on.

EIF4EBP3 (UniProt O60516)
inactive: [5] -0.033

ERF (UniProt P50548)
inactive: Tubastatin A 0.016 | [5] 0.014 | defactinib -0.053 | [6] -0.184 | alisertib 0.024 | gefitinib 0.017 | crizotinib 0.096 | duvelisib 0.032 | doramapimod -0.044

EPN2 (UniProt I3L356)
inactive: alvocidib -0.108 | alisertib -0.253 | [1] -0.02 | gefitinib 0.321 | lapatinib 0.014 | pictilisib -0.054 | [2] -0.361 | gandotinib 0.081 | bafetinib 0.031 | [3] 0.146

ELOVL6 (UniProt Q9H5J4)
inactive: alvocidib -0.111 | [5] -0.44 | defactinib 0.243 | [6] -0.153 | alisertib -0.039 | [1] -0.153 | gefitinib -0.133 | lapatinib -0.306 | crizotinib -0.213 | [2] -0.09 | duvelisib -0.132 | gandotinib 0.202 | doramapimod -0.057 | [3] 0.2

ELP5 isoform 2 (UniProt Q8TE02)
inactive: alvocidib 0.083 | [2] -0.254 | gandotinib 0.219 | [3] 0.192

ERCC6 (UniProt P0DP91)
inactive: Tubastatin A 0.064 | [5] -0.379 | [6] -0.064 | encorafenib -0.114 | [4] -0.028 | alisertib -0.077 | gefitinib -0.11 | pictilisib 0.089 | duvelisib 0.132 | tozasertib -0.249 | bafetinib -0.332

EIF4B (UniProt F8VP89)
inactive: [6] -0.166 | [1] 0.099 | lapatinib -0.107 | pictilisib -0.14 | crizotinib -0.252 | duvelisib 0.066 | doramapimod -0.213 | bafetinib 0.033

EIF4H isoform 2 (UniProt Q15056)
inactive: Tubastatin A 0.046 | [5] 0.233 | defactinib 0.294 | [6] -0.045 | encorafenib -0.112 | [4] -0.082 | [1] -0.045 | lapatinib 0.027 | pictilisib -0.192 | crizotinib 0.148 | duvelisib -0.027 | tozasertib -0.09 | doramapimod -0.214 | bafetinib 0.353

ENO3 (UniProt K7EKN2)
inactive: [1] 0.012 | lapatinib -0.082

EMC1 (UniProt H7C5A2)
inactive: Tubastatin A 0.187 | [5] 0.228 | [6] 0.414 | [1] 0.165 | lapatinib -0.044 | crizotinib 0.064 | duvelisib -0.13 | doramapimod -0.095

EIF4G1 isoform 5 (UniProt Q04637)
inactive: alisertib -0.019 | [1] -0.064 | gefitinib -0.147 | lapatinib 0.011

EIF3J isoform 2 (UniProt O75822)
inactive: alvocidib 0.061 | Tubastatin A 0.095 | defactinib -0.061 | encorafenib 0.001 | [4] 0.101 | [1] -0.006 | lapatinib 0.033 | [2] 0.245 | gandotinib -0.112 | tozasertib 0.062 | [3] -0.257

EPC1 (UniProt Q9H2F5)
inactive: alvocidib 0.224 | pictilisib 0.144 | crizotinib -0.076 | [2] 0.235 | gandotinib -0.054 | doramapimod -0.448 | bafetinib -0.317 | [3] -0.03
